Source: patent US20250346890A1, “LEUKEMIA TREATMENT” (Deutsches Krebsforschungszentrum, priority 2019, published 2025)
These are yes or no findings as the source states them, for the method shown. Some entries that bind do so weakly or less than the wild type.

The chains behind the UniProt entries cited, without tags or fusion partners. Where a name states a change or a piece, a line headed by the entry shows the natural chain unless it says otherwise. A line that says so, or that is headed by a name, gives the form on record, which may keep a tag or linker. Residues count along the entry.
UniProt P36894: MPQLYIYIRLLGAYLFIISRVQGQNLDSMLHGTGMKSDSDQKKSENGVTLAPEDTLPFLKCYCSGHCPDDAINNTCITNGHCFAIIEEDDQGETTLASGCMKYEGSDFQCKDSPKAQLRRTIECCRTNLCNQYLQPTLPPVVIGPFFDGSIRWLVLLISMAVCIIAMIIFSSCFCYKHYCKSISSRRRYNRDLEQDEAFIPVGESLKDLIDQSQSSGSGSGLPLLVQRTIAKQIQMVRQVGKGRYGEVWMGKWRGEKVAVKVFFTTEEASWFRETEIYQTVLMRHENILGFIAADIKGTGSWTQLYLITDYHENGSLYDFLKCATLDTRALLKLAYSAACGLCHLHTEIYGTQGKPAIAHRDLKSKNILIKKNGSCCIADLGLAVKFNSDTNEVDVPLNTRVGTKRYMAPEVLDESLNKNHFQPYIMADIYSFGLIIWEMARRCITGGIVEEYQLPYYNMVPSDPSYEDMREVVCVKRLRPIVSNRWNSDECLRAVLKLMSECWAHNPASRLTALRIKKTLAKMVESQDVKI
human ALK3-HA expressed in HEK293T cells: residues 24-532 of P36894
ALK3^ECD-AP (extracellular domain of ALK3 fused to alkaline phosphatase, conditioned medium): residues 24-152 of P36894
UniProt Q6UXX9: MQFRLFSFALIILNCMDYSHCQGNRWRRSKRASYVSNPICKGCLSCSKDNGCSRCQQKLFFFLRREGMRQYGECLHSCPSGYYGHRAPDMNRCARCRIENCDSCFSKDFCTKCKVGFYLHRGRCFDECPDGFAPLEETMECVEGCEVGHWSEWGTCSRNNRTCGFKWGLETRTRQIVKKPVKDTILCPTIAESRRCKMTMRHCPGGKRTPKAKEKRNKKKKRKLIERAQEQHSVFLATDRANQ

Columns and labels:
[1] = target: ALK3^ECD-AP (extracellular domain of ALK3 fused to alkaline phosphatase, conditioned medium) (UniProt P36894); experiment: in vitro binding assay: plate-coated ZNRF3 Fc, ALK3^ECD-AP preincubated with RSPO2; bound AP activity
[2] = target: human ALK3-HA expressed in HEK293T cells (human) (UniProt P36894); experiment: cell surface binding assay on HEK293T cells transfected with human ALK3-HA, AP conditioned medium
[3] = target: ALK3^ECD-AP (extracellular domain of ALK3 fused to alkaline phosphatase, conditioned medium) (UniProt P36894); experiment: in vitro binding assay: plate-coated recombinant RSPO2, ALK3^ECD-AP conditioned medium, bound AP chemiluminescence

“RSPO2-Flag (human RSPO2 wild-type lacking the C-terminal domain, C-terminal Flag-tag, conditioned medium) (from UniProt Q6UXX9 22-204) (ligand)” was tested, and the binding [1] was “binds”.
In the case of “human RSPO2^ΔC-AP (RSPO2 with the C-terminal domain replaced by alkaline phosphatase, conditioned medium) (from UniProt Q6UXX9 22-204) (ligand)”, the binding [2] was “binds”.
With “recombinant human RSPO2 (Peprotech 120-43) (from UniProt Q6UXX9 22-243) (ligand)” the binding [3] was “binds”.
